The list shows a part of the results. These are raw signals, not scaled to a control.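 In the initial screen, polymyxin B was used at a concentration that permeabilizes Salmonella's outer membrane but not its inner membrane. Maximum growth was set by DMSO wells with or without polymyxin B. Since plates varied, data were ranked per plate, and compounds giving the lowest OD600 advanced as hits.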
System: Salmonella enterica serovar Typhimurium SL1344
Test: bacterial growth OD600 after 18 h with compound and polymyxin B; higher = more bacterial growth (less inhibition)
Conditions: 50 µM, Mueller-Hinton broth

Q: How did the “bacterial growth OD600” value (polymyxin B 0.75 µg/mL) turn out when `COc1cc(CN(Cc2ccncc2)C(=O)c2ccc(-c3ccccc3)cc2)ccc1OC1Cc2ccccc2C1` was run?
A: 0.84

Q: How did the “bacterial growth OD600” value (polymyxin B 1 µg/mL) turn out when `Cc1nn(C)cc1CN(C)c1ccc(C(=O)NCCC2CCCCN2C)cn1` (stereo unspecified) was run?
A: 1

Q: `Cc1cc(C)n(-c2ccc(NC(=O)C3CCCCN3CC3CC3)cc2)n1` (stereo unspecified) was tested. Which “bacterial growth OD600” value (polymyxin B 1 µg/mL) did it give?
A: 1.15

Q: For `O=C(NC1(c2ccccc2)CC1)c1cc(COc2ccc(F)c(F)c2)on1`, which “bacterial growth OD600” value (polymyxin B 1 µg/mL) is on record?
A: 0.003

Q: With `CSc1ccccc1C(=O)NCc1c(C)ncc2c1CCN(C(=O)C13CC4CC(CC(C4)C1)C3)C2` as the compound, how does the “bacterial growth OD600” value (polymyxin B 0.75 µg/mL) read?
A: 0.84

Q: How did the “bacterial growth OD600” value (polymyxin B 1 µg/mL) turn out when `CCC(=O)N1CCCC(Nc2ccc(F)cc2)C1` (stereo unspecified) was run?
A: 1.03

Q: With `Cc1occc1C(=O)N(C)C(Cc1ccccc1F)C1CCN(C(=O)/C=C/c2cccc(F)c2)CC1` (stereo unspecified) as the compound, how does the “bacterial growth OD600” value (polymyxin B 0.75 µg/mL) read?
A: 0.012

Q: How did the “bacterial growth OD600” value (polymyxin B 0.75 µg/mL) turn out when `Cc1ccccc1CCC1CCCN(C(=O)Cn2cccn2)C1` (stereo unspecified) was run?
A: 0.729

Q: `COCC(=O)N1CCC(Oc2ccc(C(=O)NC(C)c3nccs3)cc2)CC1` (stereo unspecified) was tested. Which “bacterial growth OD600” value (polymyxin B 1 µg/mL) did it give?
A: 0.846

Q: `COc1cc(CN2CCCC(CNC(=O)c3ccc(F)cc3)C2)cc(Cl)c1O` (stereo unspecified) was tested. Which “bacterial growth OD600” value (polymyxin B 0.75 µg/mL) did it give?
A: 0.795

Q: How did the “bacterial growth OD600” value (polymyxin B 0.75 µg/mL) turn out when `O=C(C1CC12CCCC2)N1CCc2onc(-c3cccc(F)c3)c2C1` (stereo unspecified) was run?
A: 0.001

Q: How did the “bacterial growth OD600” value (polymyxin B 1 µg/mL) turn out when `CN(C(=O)CC(c1cccc(O)c1)c1cccc(Cl)c1)C1CCOCC1` (stereo unspecified) was run?
A: 0.588

Q: `CCOc1ccc(CNC2CCCc3nc(-c4cccnc4)ncc32)cc1` (stereo unspecified) was tested. Which “bacterial growth OD600” value (polymyxin B 1 µg/mL) did it give?
A: 0.858

Q: For `Cc1ncccc1C(=O)N1CCCC(C(=O)c2ccc(-c3ccccc3)cc2)C1` (stereo unspecified), which “bacterial growth OD600” value (polymyxin B 1 µg/mL) is on record?
A: 0.009

Q: Which “bacterial growth OD600” value (polymyxin B 0.75 µg/mL) does the source give for `Cc1ccc(Oc2ncccc2CNCc2ccccn2)c(F)c1F` here?
A: 0.537

Q: `COc1ccc(CCN2CC(C(=O)NCCCn3nc(C)cc3C)CCC2=O)cc1` (stereo unspecified) was tested. Which “bacterial growth OD600” value (polymyxin B 1 µg/mL) did it give?
A: 0.799

Q: How did the “bacterial growth OD600” value (polymyxin B 0.75 µg/mL) turn out when `CCn1c(-c2ccccc2F)nc2cc(C(=O)NC(C)c3cn(C)nc3C)cc(NC(C)=O)c21` (stereo unspecified) was run?
A: 0.901

Q: With `Cc1ccccc1-c1nc(CN(Cc2c(C)nn(C)c2C)C2CC2)c(C)o1` as the compound, how does the “bacterial growth OD600” value (polymyxin B 1 µg/mL) read?
A: 0.669

Q: How did the “bacterial growth OD600” value (polymyxin B 0.75 µg/mL) turn out when `COc1cc(-c2nc(CN3CCCCC3CCNC(C)=O)c(C)o2)ccc1F` (stereo unspecified) was run?
A: 0.623

Q: `Cc1nccn1-c1ccc(NC(=O)C2CCCN2C(=O)C(C)(C)C)cc1` (stereo unspecified) was tested. Which “bacterial growth OD600” value (polymyxin B 1 µg/mL) did it give?
A: 1.02

Q: For `COc1cc(CC2(CCC(=O)N3CCN(c4cccc(C)n4)CC3)CCC(=O)N2)ccc1F` (stereo unspecified), which “bacterial growth OD600” value (polymyxin B 0.75 µg/mL) is on record?
A: 0.971

Q: Which “bacterial growth OD600” value (polymyxin B 1 µg/mL) does the source give for `O=C(NCC1CCCN(C(=O)C2CCC2)C1)c1ccc(F)cc1` (stereo unspecified) here?
A: 0.919

Q: How did the “bacterial growth OD600” value (polymyxin B 0.75 µg/mL) turn out when `C=C(C)CN(CC)C(=O)c1cc(COc2cc(C)c(Cl)c(C)c2)on1` was run?
A: -0.001

Q: How did the “bacterial growth OD600” value (polymyxin B 0.75 µg/mL) turn out when `CC(C)c1cc(C(=O)N2CCOc3ccc(C(O)C(c4ccccc4)c4ccccc4)cc3C2)no1` (stereo unspecified) was run?
A: 0.009

Q: Which “bacterial growth OD600” value (polymyxin B 1 µg/mL) does the source give for `CCOC(=O)C1(Cc2cccc(OC)c2)CCN(Cc2cccnc2)CC1` here?
A: 0.747

Q: Which “bacterial growth OD600” value (polymyxin B 0.75 µg/mL) does the source give for `COC(=O)CCCNc1nc(CN(C)C(C)c2cccs2)nc2ccccc12` (stereo unspecified) here?
A: 0.831

Q: How did the “bacterial growth OD600” value (polymyxin B 0.75 µg/mL) turn out when `COC(=O)C1CCCCN1C(=O)c1c(OC)cc(=O)n2c1CCN(Cc1ccc(OC)cc1)CC2` (stereo unspecified) was run?
A: 0.848

Q: For `COc1ccccc1CCN1CCCC(CN(C)C(=O)COc2ccccc2)C1` (stereo unspecified), which “bacterial growth OD600” value (polymyxin B 1 µg/mL) is on record?
A: 0.824

Q: `CCN(CC1CCCN(CCc2cccc(OC)c2)C1)C(=O)c1ccc(COC)o1` (stereo unspecified) was tested. Which “bacterial growth OD600” value (polymyxin B 1 µg/mL) did it give?
A: 0.8

Q: `COc1ccc(NC(=O)CCC2CCCN(c3ccccn3)C2)c(C)c1` (stereo unspecified) was tested. Which “bacterial growth OD600” value (polymyxin B 1 µg/mL) did it give?
A: 0.918

Q: Which “bacterial growth OD600” value (polymyxin B 1 µg/mL) does the source give for `O=C(CCC1CCN(C(=O)c2ccccc2)CC1)N1CCC(Cc2ccccc2)CC1` here?
A: 0.79

From the supplement of paper PMC12889115
